Assay [1] deals with TRAPPC12 (mammalian) (UniProt Q8WVT3). The assay can be described thus: affinity purification with mass spectrometry + SEC.
The target in assay [2] is TRAPPC11 (mammalian) (UniProt Q7Z392). Briefly: affinity purification with mass spectrometry + SEC.

Sequences of proteins named here, by UniProt entry; tags and fusion partners are left off.
UniProt Q8WVT3: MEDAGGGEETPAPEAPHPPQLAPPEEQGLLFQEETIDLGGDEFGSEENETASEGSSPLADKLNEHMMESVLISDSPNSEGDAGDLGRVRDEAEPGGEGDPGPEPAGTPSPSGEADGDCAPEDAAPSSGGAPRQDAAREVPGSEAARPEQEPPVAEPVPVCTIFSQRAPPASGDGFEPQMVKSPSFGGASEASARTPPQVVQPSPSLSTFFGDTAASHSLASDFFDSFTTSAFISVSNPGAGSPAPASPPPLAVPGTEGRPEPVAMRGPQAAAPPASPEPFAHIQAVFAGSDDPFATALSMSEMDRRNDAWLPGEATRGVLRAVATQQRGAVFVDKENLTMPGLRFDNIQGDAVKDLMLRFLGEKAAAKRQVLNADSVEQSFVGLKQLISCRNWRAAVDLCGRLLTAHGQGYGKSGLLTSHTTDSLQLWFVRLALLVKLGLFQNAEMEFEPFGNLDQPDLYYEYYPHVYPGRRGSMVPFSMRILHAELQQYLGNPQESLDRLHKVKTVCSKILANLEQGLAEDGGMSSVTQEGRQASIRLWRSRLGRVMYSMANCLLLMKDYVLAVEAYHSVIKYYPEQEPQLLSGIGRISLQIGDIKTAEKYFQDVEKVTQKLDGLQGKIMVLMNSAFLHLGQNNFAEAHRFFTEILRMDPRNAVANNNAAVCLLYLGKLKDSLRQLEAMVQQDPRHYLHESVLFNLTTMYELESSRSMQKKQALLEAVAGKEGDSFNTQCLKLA
UniProt Q7Z392: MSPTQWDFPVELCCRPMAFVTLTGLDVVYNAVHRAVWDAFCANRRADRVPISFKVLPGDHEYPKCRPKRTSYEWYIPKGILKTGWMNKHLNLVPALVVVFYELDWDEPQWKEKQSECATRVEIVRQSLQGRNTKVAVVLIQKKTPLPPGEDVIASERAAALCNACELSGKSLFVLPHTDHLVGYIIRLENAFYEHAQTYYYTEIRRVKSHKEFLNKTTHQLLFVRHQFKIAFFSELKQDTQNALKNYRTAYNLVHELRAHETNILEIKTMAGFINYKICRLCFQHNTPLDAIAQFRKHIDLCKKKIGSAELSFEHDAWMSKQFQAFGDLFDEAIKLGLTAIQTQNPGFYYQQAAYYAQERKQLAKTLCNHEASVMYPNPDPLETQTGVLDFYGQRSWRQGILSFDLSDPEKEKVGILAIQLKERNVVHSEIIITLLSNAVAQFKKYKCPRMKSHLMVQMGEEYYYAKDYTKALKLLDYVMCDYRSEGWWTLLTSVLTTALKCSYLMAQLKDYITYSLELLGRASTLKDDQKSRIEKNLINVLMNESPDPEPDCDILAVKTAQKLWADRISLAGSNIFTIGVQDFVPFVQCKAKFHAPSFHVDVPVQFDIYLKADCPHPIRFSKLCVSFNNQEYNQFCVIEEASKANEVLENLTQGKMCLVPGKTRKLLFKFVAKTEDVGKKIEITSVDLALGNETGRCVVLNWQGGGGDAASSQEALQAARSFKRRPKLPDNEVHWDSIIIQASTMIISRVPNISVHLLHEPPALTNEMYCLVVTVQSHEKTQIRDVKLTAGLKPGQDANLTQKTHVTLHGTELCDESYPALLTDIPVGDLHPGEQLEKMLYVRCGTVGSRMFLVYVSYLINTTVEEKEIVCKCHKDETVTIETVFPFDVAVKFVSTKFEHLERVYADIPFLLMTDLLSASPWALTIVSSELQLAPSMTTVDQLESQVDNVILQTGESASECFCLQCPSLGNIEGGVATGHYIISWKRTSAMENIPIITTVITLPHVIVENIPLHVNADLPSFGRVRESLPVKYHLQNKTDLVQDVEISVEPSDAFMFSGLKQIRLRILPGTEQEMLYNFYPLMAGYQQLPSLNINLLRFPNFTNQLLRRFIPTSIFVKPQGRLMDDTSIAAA
UniProt O43617: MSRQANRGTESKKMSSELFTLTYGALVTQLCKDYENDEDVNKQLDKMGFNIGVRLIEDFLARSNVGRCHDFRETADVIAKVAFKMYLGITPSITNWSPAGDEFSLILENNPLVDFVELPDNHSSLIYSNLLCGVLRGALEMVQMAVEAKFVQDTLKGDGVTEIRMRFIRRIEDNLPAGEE
UniProt Q9Y2L5: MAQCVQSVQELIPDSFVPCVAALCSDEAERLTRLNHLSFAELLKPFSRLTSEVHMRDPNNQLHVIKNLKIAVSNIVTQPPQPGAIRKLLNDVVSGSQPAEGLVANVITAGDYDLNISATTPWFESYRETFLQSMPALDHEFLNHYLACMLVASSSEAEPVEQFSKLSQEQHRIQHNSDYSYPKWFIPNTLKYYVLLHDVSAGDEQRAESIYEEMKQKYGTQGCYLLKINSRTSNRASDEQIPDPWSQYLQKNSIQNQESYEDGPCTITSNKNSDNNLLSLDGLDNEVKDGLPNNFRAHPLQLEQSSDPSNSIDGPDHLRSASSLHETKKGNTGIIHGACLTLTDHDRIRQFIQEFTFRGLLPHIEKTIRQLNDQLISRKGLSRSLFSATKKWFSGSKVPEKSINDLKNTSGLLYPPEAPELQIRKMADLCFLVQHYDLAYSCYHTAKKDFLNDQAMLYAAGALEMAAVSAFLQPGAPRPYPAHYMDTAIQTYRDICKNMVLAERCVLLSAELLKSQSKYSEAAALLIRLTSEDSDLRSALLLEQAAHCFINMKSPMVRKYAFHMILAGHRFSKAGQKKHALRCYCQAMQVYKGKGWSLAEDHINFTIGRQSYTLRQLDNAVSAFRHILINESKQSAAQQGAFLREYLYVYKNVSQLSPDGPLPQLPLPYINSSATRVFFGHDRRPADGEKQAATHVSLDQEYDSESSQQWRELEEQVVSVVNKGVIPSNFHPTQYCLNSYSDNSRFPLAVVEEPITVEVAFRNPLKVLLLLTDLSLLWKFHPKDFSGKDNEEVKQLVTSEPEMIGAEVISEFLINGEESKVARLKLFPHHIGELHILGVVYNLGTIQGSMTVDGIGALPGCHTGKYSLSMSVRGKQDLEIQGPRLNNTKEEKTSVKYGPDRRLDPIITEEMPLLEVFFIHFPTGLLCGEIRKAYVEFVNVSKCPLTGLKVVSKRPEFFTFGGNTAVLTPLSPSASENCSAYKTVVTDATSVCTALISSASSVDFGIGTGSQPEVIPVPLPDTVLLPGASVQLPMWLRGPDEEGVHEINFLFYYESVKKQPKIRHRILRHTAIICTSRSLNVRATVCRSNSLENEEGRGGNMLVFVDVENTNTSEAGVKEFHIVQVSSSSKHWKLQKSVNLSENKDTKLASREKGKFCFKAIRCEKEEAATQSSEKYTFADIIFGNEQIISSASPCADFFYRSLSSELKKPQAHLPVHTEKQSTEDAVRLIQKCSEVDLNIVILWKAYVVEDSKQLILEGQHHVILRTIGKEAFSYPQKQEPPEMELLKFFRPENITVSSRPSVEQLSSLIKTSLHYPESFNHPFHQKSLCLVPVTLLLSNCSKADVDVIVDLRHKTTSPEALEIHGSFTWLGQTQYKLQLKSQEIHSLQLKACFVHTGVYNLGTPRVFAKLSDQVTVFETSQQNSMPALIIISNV
UniProt O75865: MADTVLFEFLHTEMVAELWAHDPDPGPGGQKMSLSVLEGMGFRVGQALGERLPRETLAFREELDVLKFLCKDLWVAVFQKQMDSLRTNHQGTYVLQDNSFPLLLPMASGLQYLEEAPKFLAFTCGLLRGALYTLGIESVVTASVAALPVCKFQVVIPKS
UniProt Q9Y5R8: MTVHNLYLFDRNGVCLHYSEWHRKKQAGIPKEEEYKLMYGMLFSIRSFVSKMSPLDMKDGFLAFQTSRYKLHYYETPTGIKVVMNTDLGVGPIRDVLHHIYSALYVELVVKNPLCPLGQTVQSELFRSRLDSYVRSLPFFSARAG
UniProt Q9Y296: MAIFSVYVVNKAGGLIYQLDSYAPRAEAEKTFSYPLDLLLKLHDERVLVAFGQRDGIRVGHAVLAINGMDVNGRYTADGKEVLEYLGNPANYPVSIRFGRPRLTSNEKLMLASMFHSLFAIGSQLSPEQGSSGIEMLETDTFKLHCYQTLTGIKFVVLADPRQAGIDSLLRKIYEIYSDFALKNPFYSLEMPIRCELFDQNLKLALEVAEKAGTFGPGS
UniProt Q8IUR0: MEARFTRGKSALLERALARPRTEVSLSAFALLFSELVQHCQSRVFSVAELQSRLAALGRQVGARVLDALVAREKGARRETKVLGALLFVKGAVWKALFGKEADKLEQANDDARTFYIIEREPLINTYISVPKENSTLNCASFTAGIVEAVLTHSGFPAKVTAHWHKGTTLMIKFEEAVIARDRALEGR
UniProt Q9UL33: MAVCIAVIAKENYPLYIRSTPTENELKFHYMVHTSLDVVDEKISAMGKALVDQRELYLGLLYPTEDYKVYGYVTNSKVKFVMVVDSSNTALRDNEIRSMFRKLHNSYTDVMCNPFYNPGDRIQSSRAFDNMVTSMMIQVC
UniProt A5PLN9: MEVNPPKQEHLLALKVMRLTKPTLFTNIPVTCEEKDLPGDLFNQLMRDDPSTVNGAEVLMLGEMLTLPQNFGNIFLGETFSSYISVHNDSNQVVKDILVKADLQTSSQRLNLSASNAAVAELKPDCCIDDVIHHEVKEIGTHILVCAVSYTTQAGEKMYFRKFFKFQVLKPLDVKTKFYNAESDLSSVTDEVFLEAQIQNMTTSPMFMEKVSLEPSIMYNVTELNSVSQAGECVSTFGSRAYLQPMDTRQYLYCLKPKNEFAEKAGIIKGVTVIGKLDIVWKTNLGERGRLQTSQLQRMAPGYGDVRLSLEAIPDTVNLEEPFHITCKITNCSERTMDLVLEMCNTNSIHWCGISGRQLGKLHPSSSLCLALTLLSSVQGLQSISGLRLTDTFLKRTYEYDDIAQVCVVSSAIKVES

Results are given in words; binding and its absence hold for the method and conditions named. In cells and extracts the contact can be indirect. Here binding means that the protein was enriched with, or labelled near, the bait; the list need not be complete.

TRAPPC3 (from UniProt O43617 1-180): the binding entry in assay [1] and in assay [2] was “binds” in each case.
In the case of TRAPPC11 (from UniProt Q7Z392 1-1133), in assay [1], the binding entry is recorded as “binds”.
For TRAPPC8 (from UniProt Q9Y2L5 1-1435), the binding entry in assay [1] and in assay [2] was “binds” in each case.
With TRAPPC6A (from UniProt O75865 1-159), the binding result in assay [1] and in assay [2] was “binds” each time.
TRAPPC1 (from UniProt Q9Y5R8 1-145): the binding entry in assay [1] and in assay [2] was “binds” each time.
Regarding TRAPPC4 (from UniProt Q9Y296 1-219), the binding entry in assay [1] and in assay [2] was “binds” each time.
Turning to TRAPPC5 (from UniProt Q8IUR0 1-188), the binding result in assay [1] and in assay [2] was “binds” each time.
Turning to TRAPPC2L (from UniProt Q9UL33 1-140), the binding result in assay [1] and in assay [2] was “binds” throughout.
With TRAPPC13 (from UniProt A5PLN9 1-417), the binding result in assay [1] and in assay [2] was “binds” in each case.

Source of the values: paper doi:10.1101/2021.06.01.446621.
